Measurements from the supplement of paper PMC12067093, “Discovery and optimisation of a covalent ligand for TRIM25 and its application to targeted protein ubiquitination” (Chemical Science, 2025).
The list shows a part of the results.

The chains behind the UniProt entries cited, without tags or fusion partners. Where a name states a change or a piece, a line headed by the entry shows the natural chain unless it says otherwise.
UniProt Q5T8I3: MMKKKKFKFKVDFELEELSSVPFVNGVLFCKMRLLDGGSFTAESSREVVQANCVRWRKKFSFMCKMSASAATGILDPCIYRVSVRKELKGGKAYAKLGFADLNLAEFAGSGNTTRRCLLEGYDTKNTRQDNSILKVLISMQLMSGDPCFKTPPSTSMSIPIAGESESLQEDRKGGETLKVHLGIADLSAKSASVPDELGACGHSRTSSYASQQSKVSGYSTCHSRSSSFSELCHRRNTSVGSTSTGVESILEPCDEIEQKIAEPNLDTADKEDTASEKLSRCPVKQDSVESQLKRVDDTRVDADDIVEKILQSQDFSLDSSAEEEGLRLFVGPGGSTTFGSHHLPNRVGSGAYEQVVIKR
UniProt Q9NZB2: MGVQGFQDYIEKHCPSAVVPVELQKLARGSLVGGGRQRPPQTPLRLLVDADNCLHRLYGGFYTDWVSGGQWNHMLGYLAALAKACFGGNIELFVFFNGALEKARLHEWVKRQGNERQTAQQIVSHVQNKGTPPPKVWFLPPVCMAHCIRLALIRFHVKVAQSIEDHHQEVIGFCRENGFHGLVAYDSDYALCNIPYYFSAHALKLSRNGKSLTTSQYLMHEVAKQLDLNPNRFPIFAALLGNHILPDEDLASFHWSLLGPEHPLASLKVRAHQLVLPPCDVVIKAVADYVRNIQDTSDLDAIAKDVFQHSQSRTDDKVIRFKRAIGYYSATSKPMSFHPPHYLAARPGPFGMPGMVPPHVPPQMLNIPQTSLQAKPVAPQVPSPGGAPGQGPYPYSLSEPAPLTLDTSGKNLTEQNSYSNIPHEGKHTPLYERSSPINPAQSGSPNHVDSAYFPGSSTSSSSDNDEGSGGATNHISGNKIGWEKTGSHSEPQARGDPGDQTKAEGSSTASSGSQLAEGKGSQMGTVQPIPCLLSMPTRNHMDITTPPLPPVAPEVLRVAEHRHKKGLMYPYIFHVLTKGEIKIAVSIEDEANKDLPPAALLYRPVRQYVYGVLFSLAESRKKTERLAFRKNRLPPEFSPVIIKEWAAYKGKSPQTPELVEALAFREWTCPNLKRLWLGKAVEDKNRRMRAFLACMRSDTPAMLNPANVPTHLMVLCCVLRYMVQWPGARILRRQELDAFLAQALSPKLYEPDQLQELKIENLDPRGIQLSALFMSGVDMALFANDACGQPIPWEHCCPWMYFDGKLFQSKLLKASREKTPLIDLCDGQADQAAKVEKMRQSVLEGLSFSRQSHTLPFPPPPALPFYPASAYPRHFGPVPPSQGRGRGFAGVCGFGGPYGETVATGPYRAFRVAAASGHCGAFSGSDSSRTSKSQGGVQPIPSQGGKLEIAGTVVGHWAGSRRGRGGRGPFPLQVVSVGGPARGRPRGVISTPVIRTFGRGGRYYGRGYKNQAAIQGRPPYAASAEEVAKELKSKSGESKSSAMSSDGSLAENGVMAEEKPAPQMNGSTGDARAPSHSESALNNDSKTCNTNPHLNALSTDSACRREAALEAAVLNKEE
UniProt Q9Y282: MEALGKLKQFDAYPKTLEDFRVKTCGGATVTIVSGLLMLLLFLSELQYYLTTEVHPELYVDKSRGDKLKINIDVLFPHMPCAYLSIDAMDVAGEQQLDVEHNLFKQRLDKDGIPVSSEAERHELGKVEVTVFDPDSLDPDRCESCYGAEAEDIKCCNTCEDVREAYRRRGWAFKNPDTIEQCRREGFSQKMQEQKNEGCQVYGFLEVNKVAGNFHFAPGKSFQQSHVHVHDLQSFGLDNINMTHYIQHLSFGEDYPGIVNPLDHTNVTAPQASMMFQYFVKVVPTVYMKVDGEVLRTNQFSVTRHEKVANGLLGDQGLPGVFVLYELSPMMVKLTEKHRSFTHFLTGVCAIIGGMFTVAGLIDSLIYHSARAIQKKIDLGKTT
UniProt P10768: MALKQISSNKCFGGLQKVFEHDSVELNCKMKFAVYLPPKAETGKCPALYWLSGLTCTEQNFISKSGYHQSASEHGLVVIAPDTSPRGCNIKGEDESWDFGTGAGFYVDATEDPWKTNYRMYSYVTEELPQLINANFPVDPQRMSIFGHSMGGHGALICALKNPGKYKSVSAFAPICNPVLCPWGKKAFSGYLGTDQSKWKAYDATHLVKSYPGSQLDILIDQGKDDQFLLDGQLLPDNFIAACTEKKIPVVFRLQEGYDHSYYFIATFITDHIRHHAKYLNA
UniProt Q15910, whole entry, looked up: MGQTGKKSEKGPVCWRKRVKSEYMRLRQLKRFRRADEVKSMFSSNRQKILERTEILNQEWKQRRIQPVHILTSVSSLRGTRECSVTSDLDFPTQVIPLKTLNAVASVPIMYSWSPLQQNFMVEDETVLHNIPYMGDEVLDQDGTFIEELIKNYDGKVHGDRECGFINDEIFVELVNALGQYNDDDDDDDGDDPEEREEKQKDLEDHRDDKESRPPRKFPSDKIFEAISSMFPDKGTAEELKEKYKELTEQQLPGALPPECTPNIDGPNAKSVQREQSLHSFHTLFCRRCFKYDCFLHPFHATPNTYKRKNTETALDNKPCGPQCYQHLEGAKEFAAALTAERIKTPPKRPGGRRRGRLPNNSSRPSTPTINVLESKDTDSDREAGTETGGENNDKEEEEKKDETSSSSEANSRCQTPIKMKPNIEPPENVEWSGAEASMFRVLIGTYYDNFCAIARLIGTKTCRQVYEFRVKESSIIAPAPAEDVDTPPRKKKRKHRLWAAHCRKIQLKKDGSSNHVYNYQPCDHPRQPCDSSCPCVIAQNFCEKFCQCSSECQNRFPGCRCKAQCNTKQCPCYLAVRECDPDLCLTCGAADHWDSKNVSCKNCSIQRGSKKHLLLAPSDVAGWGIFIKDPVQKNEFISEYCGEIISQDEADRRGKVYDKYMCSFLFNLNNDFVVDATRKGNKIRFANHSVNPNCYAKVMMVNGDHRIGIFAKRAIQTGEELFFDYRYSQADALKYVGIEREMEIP
UniProt Q9NVH0: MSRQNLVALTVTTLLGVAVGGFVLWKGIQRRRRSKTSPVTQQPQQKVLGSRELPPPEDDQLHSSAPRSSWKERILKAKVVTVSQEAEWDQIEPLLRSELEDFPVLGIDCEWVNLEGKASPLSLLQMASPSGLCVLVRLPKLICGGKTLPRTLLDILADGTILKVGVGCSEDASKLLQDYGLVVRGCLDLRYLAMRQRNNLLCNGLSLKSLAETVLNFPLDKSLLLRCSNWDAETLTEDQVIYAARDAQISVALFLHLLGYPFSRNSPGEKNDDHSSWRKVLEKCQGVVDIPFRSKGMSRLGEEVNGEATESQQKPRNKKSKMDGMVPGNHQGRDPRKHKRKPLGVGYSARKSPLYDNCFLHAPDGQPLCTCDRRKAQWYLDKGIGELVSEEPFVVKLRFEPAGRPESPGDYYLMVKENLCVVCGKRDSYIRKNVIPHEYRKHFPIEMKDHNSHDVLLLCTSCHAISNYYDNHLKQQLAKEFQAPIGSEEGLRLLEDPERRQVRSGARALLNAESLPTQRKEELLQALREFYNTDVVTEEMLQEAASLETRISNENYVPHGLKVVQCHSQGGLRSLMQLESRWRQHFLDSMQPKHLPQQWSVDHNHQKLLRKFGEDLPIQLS
UniProt Q9BPY3: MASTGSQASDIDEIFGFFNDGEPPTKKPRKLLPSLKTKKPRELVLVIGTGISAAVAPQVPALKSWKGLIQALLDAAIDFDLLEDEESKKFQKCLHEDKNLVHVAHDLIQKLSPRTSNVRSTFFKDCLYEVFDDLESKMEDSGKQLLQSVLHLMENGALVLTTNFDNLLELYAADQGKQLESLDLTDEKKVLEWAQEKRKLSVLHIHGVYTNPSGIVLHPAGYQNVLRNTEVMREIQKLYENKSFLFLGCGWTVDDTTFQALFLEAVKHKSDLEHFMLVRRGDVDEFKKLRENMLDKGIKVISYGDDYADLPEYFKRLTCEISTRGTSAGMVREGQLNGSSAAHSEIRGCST
UniProt O95571: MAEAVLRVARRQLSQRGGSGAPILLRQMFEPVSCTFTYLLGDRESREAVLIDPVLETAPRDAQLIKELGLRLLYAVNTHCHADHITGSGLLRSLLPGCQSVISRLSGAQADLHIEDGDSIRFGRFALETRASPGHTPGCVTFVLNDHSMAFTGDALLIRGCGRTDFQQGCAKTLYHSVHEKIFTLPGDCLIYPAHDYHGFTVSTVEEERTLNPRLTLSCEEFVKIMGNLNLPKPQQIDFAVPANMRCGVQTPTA
UniProt O43414: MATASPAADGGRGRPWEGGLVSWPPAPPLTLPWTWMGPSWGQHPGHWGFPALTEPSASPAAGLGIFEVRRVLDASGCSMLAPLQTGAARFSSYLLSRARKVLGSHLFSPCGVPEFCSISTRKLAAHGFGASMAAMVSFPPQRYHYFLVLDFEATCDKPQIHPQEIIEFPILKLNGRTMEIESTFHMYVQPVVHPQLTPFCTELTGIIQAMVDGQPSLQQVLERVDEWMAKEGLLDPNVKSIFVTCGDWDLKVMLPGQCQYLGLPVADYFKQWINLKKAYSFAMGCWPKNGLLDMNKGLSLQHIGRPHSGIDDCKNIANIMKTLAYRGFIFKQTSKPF
UniProt Q16134: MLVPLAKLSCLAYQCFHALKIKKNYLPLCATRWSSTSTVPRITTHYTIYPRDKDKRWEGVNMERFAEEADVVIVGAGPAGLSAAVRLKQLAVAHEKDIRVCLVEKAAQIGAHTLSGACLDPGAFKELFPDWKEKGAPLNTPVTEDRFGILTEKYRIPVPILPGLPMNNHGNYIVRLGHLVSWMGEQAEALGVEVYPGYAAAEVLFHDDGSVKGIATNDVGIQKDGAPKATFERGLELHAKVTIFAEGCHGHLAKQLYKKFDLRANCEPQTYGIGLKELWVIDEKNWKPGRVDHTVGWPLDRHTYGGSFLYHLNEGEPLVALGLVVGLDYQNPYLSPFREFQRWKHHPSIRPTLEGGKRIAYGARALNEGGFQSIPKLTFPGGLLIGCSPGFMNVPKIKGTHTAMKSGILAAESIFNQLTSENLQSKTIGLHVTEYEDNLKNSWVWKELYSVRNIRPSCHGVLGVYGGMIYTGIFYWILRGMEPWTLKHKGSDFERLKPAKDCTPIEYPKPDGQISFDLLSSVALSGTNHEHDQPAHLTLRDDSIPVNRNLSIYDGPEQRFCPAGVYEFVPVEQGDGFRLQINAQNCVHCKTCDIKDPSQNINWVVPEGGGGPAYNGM
UniProt Q96B26, whole entry, looked up: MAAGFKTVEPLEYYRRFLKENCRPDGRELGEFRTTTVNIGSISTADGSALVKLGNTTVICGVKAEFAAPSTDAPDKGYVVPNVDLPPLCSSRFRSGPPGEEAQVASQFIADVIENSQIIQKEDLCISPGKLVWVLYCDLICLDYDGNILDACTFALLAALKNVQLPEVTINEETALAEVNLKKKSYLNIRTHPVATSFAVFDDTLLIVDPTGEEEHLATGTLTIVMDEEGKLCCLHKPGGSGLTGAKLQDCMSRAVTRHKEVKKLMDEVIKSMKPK
UniProt Q8TAG9: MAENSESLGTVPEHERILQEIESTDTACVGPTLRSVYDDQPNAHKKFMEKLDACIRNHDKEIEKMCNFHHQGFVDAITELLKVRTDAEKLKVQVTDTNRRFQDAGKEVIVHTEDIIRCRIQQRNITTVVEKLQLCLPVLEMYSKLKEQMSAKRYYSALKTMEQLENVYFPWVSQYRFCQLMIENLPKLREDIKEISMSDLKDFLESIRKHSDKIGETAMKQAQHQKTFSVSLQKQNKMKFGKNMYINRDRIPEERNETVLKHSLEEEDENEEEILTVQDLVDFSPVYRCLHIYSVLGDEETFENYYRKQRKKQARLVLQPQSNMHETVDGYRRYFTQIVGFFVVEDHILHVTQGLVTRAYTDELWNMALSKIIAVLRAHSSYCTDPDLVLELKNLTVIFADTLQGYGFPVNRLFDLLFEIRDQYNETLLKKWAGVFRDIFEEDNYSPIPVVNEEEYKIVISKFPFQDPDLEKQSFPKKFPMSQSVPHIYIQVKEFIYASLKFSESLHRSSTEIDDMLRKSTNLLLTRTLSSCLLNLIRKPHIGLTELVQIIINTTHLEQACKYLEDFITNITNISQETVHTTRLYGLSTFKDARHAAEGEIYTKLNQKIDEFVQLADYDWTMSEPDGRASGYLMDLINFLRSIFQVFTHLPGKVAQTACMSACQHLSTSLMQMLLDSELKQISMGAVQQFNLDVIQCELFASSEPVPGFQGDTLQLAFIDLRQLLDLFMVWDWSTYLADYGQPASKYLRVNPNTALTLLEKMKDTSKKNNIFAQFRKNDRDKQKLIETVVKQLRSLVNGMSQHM
UniProt Q9Y3B2, whole entry, looked up: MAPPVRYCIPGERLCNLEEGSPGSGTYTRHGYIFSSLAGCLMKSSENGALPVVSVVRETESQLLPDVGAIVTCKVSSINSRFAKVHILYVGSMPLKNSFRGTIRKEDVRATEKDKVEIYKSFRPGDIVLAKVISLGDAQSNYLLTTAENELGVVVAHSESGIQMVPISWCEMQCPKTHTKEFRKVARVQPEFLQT

Compound: CC1Cc2ccccc2N1C(=O)C1CCCN(C1)C(=O)CCl (mixture of isomers) [TRIM25 ligand 11 (diastereomer mixture)]
Assay: probe-labelled cysteine peptide fold change vs DMSO (competition) (log2 fold change); higher = less target engagement (more negative = stronger competition)
Details: THP-1, incubation time: 4 h
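Note: competitive chemoproteomic profiling in live THP-1 cells with an iodoacetamide desthiobiotin (IA-DTB) probe, comparing probe-labelled peptide intensities in compound-treated cells against DMSO-treated controls.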

| Target | probe-labelled cysteine peptide fold change (10 µM) | probe-labelled cysteine peptide fold change (50 µM) |
| --- | --- | --- |
| FAM102B_Q5T8I3_53_EVVQANCVR (UniProt Q5T8I3) | 0.0172 | 0.158 |
| FAM120A_Q9NZB2_174_VAQSIEDHHQEVIGFCR (UniProt Q9NZB2) | 0.0766 | 0.155 |
| ERGIC3_Q9Y282_159_CCNTCEDVR (UniProt Q9Y282) | -0.23 | 0.238 |
| ESD_P10768_181_SVSAFAPICNPVLCPWGK (UniProt P10768) | 0.15 | -0.151 |
| EXOSC9_Q06265_9_MKETPLSNCER (UniProt Q06265) | -0.282 | -0.321 |
| ESF1_Q9H501_462_IYEDCDGLEFESSCSFIDLR (UniProt Q9H501) | 0.0286 | 0.0891 |
| ERLIN2_O94905_262_AKADAECYTAMK (UniProt O94905) | -0.107 | -0.249 |
| ETF1_P62495_127_KVNIDFEPFKPINTSLYLCDNK (UniProt P62495) | 0.0876 | 0.00153 |
| ESYT1_Q9BSJ8_522_AVYSTNCPVWEEAFR (UniProt Q9BSJ8) | 0.139 | 0.00221 |
| ERGIC3_Q9Y282_182_NPDTIEQCR (UniProt Q9Y282) | 0.0471 | -0.0457 |
| EZH2_Q15910_580_ECDPDLCLTCGAADHWDSK (UniProt Q15910) | -0.0517 | 0.0155 |
| EXD2_Q9NVH0_202_NNLLCNGLSLK (UniProt Q9NVH0) | 0.113 | -0.0313 |
| FAM118B_Q9BPY3_126_DCLYEVFDDLESK (UniProt Q9BPY3) | -0.178 | -0.251 |
| ETHE1_O95571_34_QMFEPVSCTFTYLLGDR (UniProt O95571) | -0.138 | 0.294 |
| FAF1_Q9UNN5_428_FLTMCNR (UniProt Q9UNN5) | 0.0874 | 0.0084 |
| FAAP100_Q0VG06_309+311_TEPQAAEAAENFLPDEDVHCDCLVAFGHHGR (UniProt Q0VG06) | 0.0559 | -0.328 |
| ERI3_O43414_258_VMLPGQCQYLGLPVADYFK (UniProt O43414) | -0.024 | 0.109 |
| ETFDH_Q16134_387_LTFPGGLLIGCSPGFMNVPK (UniProt Q16134) | -0.688 | -0.698 |
| EZH2_Q15910_294_YDCFLHPFHATPNTYKR (UniProt Q15910) | -0.0687 | -0.0746 |
| EXOSC8_Q96B26_125_EDLCISPGK (UniProt Q96B26) | 0.411 | 0.358 |
| EXOC6_Q8TAG9_66_MCNFHHQGFVDAITELLK (UniProt Q8TAG9) | 0.0763 | -0.048 |
| EXOSC1_Q9Y3B2_40_HGYIFSSLAGCLMK (UniProt Q9Y3B2) | -0.15 | -0.096 |

Complete entries as entered above:
EXD2_Q9NVH0_202_NNLLCNGLSLK (UniProt Q9NVH0) as listed: probe-labelled cysteine peptide fold change (10 µM): 0.113; probe-labelled cysteine peptide fold change (50 µM): -0.0313
ERGIC3_Q9Y282_182_NPDTIEQCR (UniProt Q9Y282) as listed: probe-labelled cysteine peptide fold change (10 µM): 0.0471; probe-labelled cysteine peptide fold change (50 µM): -0.0457
